The values below come from PubChem BioAssay AID274 (DTP/NCI, 2004).

The list does not hold the whole screen: its compounds were picked by chemical class. Other doses and runs of a compound may be missing. T/C: endpoint of the treated group in % of that of the vehicle group. Where survival is the endpoint, the PubChem record calls one and a half times the control and up active, and a quarter to a half above the control has no call in these data; cut-offs in other NCI protocols can differ. Some entries show no survivor count and are marked so; the dose need not have been tolerated. Schedules are NCI's codes, taken here to give the interval after Q, in days (D) or hours (H), and the number of doses after X. Some entries were tested several times; their values stand side by side, smallest first.

The subject of this test is BDF1 mice, Lewis lung carcinoma iv, survival T/C. The test can be described thus: NCI In Vivo Anticancer Drug Screen. Data for tumor model Lewis Lung Carcinoma (intravenous) in B6D2F1 (BDF1) mice. The conditions noted are these: T/C endpoint: median survival time, higher T/C = longer survival. As to the method: The antitumor activity of compounds was measured in mice bearing transplantable tumors. Survival or tumor size were measured and the results are expressed as the measurement made in the treated group (T) divided by the measurement made in the vehicle treated control group (C). The tumor model used in this assay is Lewis Lung Carcinoma (intravenous) in B6D2F1 (BDF1) mice

Consider `CN(CCCl)CCCl`, for which the T/C (dose: 0.06 mg/kg/injection, schedule: Q01DX009 (ip), vehicle: saline) is 104 % of control [survivor count not shown]; the T/C (dose: 0.12 mg/kg/injection, schedule: Q01DX009 (ip), vehicle: saline) was 105 % of control [survivor count not shown]; the T/C (dose: 0.25 mg/kg/injection, schedule: Q01DX009 (ip), vehicle: saline) is 109 % of control [survivor count not shown]; the T/C (dose: 0.39 mg/kg/injection, schedule: Q04DX003 (ip), vehicle: other) was 116 % of control [survivor count not shown]; the T/C (dose: 0.5 mg/kg/injection, schedule: Q01DX009 (ip), vehicle: saline) is 125 % of control [survivor count not shown]; the T/C (dose: 0.59 mg/kg/injection, schedule: Q04DX003 (ip), vehicle: saline) was 98 [survivor count not shown] and 107 % of control [survivor count not shown]. Moreover, the T/C (dose: 0.65 mg/kg/injection, schedule: Q01DX001 (ip), vehicle: other) is 115 % of control [survivor count not shown]; the T/C (dose: 0.65 mg/kg/injection, schedule: Q04DX003 (ip), vehicle: other) was 97 % of control [survivor count not shown]; the T/C (dose: 0.88 mg/kg/injection, schedule: Q04DX003 (ip), vehicle: saline) is 107 [survivor count not shown] and 119 % of control [survivor count not shown]; the T/C (dose: 1.08 mg/kg/injection, schedule: Q01DX001 (ip), vehicle: other) was 107 % of control [survivor count not shown]; the T/C (dose: 1.08 mg/kg/injection, schedule: Q04DX003 (ip), vehicle: other) is 112 % of control [survivor count not shown]; the T/C (dose: 1.33 mg/kg/injection, schedule: Q04DX003 (ip), vehicle: saline) was 102 [survivor count not shown] and 133 % of control [survivor count not shown]. For the same compound, the T/C was 121 % of control [survivor count not shown] (dose: 1.8 mg/kg/injection, schedule: Q01DX001 (ip), vehicle: other); 105 [survivor count not shown] and 138 % of control [survivor count not shown] (dose: 2.0 mg/kg/injection, schedule: Q04DX003 (ip), vehicle: saline); 106 % of control [survivor count not shown] (dose: 3.0 mg/kg/injection, schedule: Q04DX003 (ip), vehicle: saline); 94 % of control [survivor count not shown] (dose: 324.0 micrograms/kg/injection, schedule: Q04DX003 (ip), vehicle: other); 93 % of control [survivor count not shown] (dose: 324.0 micrograms/kg/injection, schedule: Q04DX003 (ip), vehicle: saline); 100 % of control [survivor count not shown] (dose: 540.0 micrograms/kg/injection, schedule: Q04DX003 (ip), vehicle: saline). Besides, the T/C (dose: 900.0 micrograms/kg/injection, schedule: Q04DX003 (ip), vehicle: saline) was 104 % of control [survivor count not shown].
